Measurements reported in PubChem BioAssay AID1159600 (NIAID, 2016).
Here is one part, drawn at random, of 756 deposited reagents. 134 of them (18%) were called active. 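Active includes both reduced and increased reporter signal, though most active siRNAs reduce it; R848 dose unknown.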 A number with no mark means an inactive call. Reagents against one gene are numbered here. Not stated in the record: the amount of reagent.

Test: 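Which TLR pathway genes support TNF promoter activation by R848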 (primary screen)
Cell system: human THP-1 TNF reporter clone B5, made macrophage-like with PMA
Knock-down reagent: single siRNA against human genes
Timing: 4 h ligand stimulation, assayed 48 to 72 h after siRNA transfection
Treatment: R848 (TLR7/8 agonist) for 4 hours before lysis; dose not given
Read-out: 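TNF promoter firefly to renilla luciferase ratio after 4 h R848, scaled per plate by median and MAD, robust z-score against negative controls, mean of replicates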
Direction: TNF reporter z-score: higher = stronger TNF promoter reporter signal after R848
Active means: 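Active where mean z-score is about 1.5 or more from zero in either direction; depositor grades use cut-offs of 1, 1.5, 2 and 2.5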
Meaning of the calls: active = strong change in TNF reporter (up or down); inactive = little change

The first 6 entries, to show the layout:
| gene symbol | reagent | TNF reporter z-score |
| --- | --- | --- |
| MAPK13 (GeneID 5603) | 1 | -2.05 (active) |
| MAPK13 (GeneID 5603) | 2 | -1.88 (active) |
| MAPK13 (GeneID 5603) | 3 | 0.378 |
| MAPK13 (GeneID 5603) | 4 | -0.387 |
| MAPK13 (GeneID 5603) | 5 | -0.672 |
| MAPK13 (GeneID 5603) | 6 | 0.348 |

Main list, repeating the preview:
| gene symbol | reagent | TNF reporter z-score |
| --- | --- | --- |
| MAPK13 (GeneID 5603) | 1 | -2.05 (active) |
| MAPK13 (GeneID 5603) | 2 | -1.88 (active) |
| MAPK13 (GeneID 5603) | 3 | 0.378 |
| MAPK13 (GeneID 5603) | 4 | -0.387 |
| MAPK13 (GeneID 5603) | 5 | -0.672 |
| MAPK13 (GeneID 5603) | 6 | 0.348 |
| FADD (GeneID 8772) | 1 | 0.168 |
| FADD (GeneID 8772) | 2 | -1.47 |
| FADD (GeneID 8772) | 3 | -0.145 |
| FADD (GeneID 8772) | 4 | -1.13 |
| FADD (GeneID 8772) | 5 | -0.463 |
| FADD (GeneID 8772) | 6 | -2.18 (active) |
| IKBKE (GeneID 9641) | 1 | -2.43 (active) |
| IKBKE (GeneID 9641) | 2 | -0.325 |
| IKBKE (GeneID 9641) | 3 | 1.3 |
| IKBKE (GeneID 9641) | 4 | -1.07 |
| IKBKE (GeneID 9641) | 5 | -1.22 |
| IKBKE (GeneID 9641) | 6 | -2.45 (active) |
| ELK1 (GeneID 2002) | 1 | -0.793 |
| ELK1 (GeneID 2002) | 2 | -2.26 (active) |
| ELK1 (GeneID 2002) | 3 | -1.26 |
| ELK1 (GeneID 2002) | 4 | -0.566 |
| ELK1 (GeneID 2002) | 5 | -0.948 |
| ELK1 (GeneID 2002) | 6 | 0.351 |
| TBKBP1 (GeneID 9755) | 1 | -0.17 |
| TBKBP1 (GeneID 9755) | 2 | -1.78 (active) |
| TBKBP1 (GeneID 9755) | 3 | -0.486 |
| TBKBP1 (GeneID 9755) | 4 | 0.86 |
| TBKBP1 (GeneID 9755) | 5 | 0.0271 |
| TBKBP1 (GeneID 9755) | 6 | -0.103 |
| MAPK10 (GeneID 5602) | 1 | -1.93 (active) |
| MAPK10 (GeneID 5602) | 2 | 1.12 |
| MAPK10 (GeneID 5602) | 3 | -0.282 |
| MAPK10 (GeneID 5602) | 4 | -0.455 |
| MAPK10 (GeneID 5602) | 5 | 0.603 |
| MAPK10 (GeneID 5602) | 6 | -0.39 |
| EGR2 (GeneID 1959) | 1 | -1.49 |
| EGR2 (GeneID 1959) | 2 | -0.928 |
| EGR2 (GeneID 1959) | 3 | -0.816 |
| EGR2 (GeneID 1959) | 4 | -1.15 |
| EGR2 (GeneID 1959) | 5 | 0.446 |
| EGR2 (GeneID 1959) | 6 | -0.633 |
| MAPK3 (GeneID 5595) | 1 | -0.852 |
| MAPK3 (GeneID 5595) | 2 | -1.69 (active) |
| MAPK3 (GeneID 5595) | 3 | -1.33 |
| MAPK3 (GeneID 5595) | 4 | -0.437 |
| MAPK3 (GeneID 5595) | 5 | 0.0946 |
| MAPK3 (GeneID 5595) | 6 | -1.34 |
